Data published in patent publication US20190256843A1 (AGILENT TECHNOLOGIES, published 2019).
No constants are given. Whether binding was seen depends on the method and setting. Some entries that bind do so weakly or less than the wild type. Tags and fused reporters may be left off the sequences shown.

By UniProt entry, the sequences of proteins in these tests, tags left out. Residues count along the entry.
UniProt P46934, residues 767-800: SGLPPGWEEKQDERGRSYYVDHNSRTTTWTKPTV
UniProt P46935, residues 405-438: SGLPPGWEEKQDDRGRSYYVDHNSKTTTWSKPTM

How the values were obtained:
[1] = target: T1, N-terminal split mCherry fused to …; experiment: BiFC split mCherry in E. coli, FACS
T1 sequence: IPGTPPPNYD

[2] = target: T1, N-terminal split mCherry fused to …; experiment: clonal BiFC split mCherry in E. coli

Row | binding [1] | binding [2] | Substance
1 | binds |  | human NEDD4 WW2 domain fused to C-terminal split mCherry with 6xHis tag (from UniProt P46934 767-800)
2 |  | binds | mouse Nedd4 WW2 fused to C-terminal split mCherry (from UniProt P46935 405-438)
